The list shows a part of the results. Residues, ends and D or L forms follow the SMILES beside them. *: point of attachment. Cbz = O=C(OCc1ccccc1)*
How the values were obtained:
Test in all cases: log2 fold change, soluble protein after heating vs DMSO (PISA); higher = thermal stabilisation; K562 cells, 10 uM, 30 min; active = over 0.2 and 3.5 SD of the protein, either way, in both replicates (recomputed)
[1] = compound: C1COCCN1CCN2C3=CC=CC=C3N=C2NC(=O)C4=CC(=CC=C4)[N+](=O)[O-] [IRAK-1-4 Inhibitor I]
Method in brief: (§1)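 Soluble protein was quantified by TMTpro 16plex LC-MS/MS after channel sums were equalised. It was obtained as the supernatant after 21,000xg for 90 min from pooled aliquots of K562 cells (2×10^6 cells/mL, 10 μM compound, 30 min) heated for 3 min across 48°C-58°C and extracted in PBS with 0.5% NP-40 at 4°C. Thermal stability values are relative to control samples and come from duplicates. They are given as log2 fold changes.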

By UniProt entry, the sequences of proteins in these tests, tags left out. Where a name states a change or a piece, a line headed by the entry shows the natural chain unless it says otherwise.
UniProt Q9NZL4: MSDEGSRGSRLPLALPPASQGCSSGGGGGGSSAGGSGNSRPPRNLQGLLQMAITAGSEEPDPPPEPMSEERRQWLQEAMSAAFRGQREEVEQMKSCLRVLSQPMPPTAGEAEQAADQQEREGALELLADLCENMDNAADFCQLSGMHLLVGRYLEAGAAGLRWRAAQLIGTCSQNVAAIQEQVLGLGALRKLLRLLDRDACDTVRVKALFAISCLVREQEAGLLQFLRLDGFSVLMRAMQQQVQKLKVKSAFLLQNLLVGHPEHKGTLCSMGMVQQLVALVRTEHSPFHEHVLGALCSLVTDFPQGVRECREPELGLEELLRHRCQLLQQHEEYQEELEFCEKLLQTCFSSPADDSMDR
UniProt P10809, whole entry, looked up: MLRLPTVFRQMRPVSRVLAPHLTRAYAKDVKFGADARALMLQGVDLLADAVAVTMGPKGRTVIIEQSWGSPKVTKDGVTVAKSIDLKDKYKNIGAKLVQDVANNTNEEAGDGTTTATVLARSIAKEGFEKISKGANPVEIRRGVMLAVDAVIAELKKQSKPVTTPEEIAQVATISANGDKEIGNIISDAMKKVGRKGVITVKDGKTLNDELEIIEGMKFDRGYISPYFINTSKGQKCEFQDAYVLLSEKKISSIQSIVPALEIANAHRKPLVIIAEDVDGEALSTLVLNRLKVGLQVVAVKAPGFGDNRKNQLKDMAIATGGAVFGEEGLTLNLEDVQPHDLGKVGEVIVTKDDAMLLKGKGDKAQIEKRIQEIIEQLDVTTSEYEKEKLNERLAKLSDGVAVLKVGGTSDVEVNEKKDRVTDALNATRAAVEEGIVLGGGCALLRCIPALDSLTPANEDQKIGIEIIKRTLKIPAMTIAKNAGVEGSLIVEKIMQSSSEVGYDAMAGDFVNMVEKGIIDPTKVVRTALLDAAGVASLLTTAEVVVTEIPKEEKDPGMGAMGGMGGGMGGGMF
UniProt P61604, whole entry, looked up: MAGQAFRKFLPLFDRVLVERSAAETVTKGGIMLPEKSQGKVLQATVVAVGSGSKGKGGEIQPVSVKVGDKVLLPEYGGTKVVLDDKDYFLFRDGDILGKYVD
UniProt Q92598: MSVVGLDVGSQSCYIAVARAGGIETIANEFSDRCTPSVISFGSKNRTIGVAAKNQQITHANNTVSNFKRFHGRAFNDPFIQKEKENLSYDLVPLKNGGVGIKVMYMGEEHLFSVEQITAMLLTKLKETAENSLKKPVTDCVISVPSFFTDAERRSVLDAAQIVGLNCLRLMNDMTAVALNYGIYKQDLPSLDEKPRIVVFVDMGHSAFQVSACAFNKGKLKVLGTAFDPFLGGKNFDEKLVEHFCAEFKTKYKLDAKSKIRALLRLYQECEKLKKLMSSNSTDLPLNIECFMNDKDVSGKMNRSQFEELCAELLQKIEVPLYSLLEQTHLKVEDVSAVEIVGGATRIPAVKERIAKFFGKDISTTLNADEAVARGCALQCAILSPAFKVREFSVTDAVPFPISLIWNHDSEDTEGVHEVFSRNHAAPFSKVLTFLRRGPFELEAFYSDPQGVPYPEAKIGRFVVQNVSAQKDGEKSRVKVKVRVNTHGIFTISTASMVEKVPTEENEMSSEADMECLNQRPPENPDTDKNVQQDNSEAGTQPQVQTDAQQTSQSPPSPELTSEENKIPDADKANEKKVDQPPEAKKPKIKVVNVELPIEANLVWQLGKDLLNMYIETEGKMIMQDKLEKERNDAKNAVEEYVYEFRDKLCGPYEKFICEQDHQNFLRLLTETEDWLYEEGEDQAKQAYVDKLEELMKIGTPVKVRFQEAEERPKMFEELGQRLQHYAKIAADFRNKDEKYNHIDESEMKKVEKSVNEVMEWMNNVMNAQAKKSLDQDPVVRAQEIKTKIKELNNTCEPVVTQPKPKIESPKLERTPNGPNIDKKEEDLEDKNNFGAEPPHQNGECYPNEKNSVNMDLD
UniProt Q9NQE9: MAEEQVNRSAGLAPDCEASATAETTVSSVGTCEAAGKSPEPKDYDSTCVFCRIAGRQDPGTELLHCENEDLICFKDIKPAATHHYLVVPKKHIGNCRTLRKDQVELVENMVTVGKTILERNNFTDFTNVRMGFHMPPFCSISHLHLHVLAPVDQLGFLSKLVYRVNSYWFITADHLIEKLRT
UniProt Q6DN03, whole entry, looked up: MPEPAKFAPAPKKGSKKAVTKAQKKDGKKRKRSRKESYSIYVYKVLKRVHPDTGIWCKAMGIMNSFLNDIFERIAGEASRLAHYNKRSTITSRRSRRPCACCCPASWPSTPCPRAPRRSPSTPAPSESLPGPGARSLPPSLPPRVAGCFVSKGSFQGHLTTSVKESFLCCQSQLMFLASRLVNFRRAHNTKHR
UniProt P04792, whole entry, looked up: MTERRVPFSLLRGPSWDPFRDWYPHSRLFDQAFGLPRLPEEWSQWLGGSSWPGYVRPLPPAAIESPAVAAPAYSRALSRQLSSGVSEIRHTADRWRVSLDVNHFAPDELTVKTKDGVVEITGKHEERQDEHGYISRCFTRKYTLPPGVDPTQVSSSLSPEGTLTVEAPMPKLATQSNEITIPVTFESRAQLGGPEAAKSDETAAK
UniProt Q15651: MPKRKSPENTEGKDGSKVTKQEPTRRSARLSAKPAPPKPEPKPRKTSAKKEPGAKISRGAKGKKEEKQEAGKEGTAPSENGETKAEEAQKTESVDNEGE
UniProt O43464: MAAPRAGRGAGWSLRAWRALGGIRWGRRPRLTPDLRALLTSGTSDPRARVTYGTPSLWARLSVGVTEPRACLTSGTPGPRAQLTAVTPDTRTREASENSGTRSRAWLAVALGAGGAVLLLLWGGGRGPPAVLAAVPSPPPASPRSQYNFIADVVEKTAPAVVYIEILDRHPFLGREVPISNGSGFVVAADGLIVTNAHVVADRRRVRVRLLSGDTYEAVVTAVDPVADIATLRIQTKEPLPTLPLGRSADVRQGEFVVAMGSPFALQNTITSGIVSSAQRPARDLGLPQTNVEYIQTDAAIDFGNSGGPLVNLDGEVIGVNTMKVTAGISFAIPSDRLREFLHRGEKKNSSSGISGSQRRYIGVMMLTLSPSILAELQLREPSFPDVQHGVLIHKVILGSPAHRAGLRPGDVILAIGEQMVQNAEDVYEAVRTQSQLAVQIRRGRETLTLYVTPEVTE
UniProt Q9NWT6: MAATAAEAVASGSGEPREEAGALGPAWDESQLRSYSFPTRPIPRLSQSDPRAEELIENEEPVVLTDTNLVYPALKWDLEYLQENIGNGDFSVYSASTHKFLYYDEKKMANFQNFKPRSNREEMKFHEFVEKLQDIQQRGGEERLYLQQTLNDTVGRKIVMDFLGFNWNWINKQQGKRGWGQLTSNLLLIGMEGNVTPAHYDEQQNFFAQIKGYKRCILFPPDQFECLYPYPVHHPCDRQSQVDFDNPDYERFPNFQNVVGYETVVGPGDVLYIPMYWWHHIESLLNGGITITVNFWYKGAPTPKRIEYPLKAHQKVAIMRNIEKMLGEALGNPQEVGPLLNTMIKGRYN
UniProt P22626: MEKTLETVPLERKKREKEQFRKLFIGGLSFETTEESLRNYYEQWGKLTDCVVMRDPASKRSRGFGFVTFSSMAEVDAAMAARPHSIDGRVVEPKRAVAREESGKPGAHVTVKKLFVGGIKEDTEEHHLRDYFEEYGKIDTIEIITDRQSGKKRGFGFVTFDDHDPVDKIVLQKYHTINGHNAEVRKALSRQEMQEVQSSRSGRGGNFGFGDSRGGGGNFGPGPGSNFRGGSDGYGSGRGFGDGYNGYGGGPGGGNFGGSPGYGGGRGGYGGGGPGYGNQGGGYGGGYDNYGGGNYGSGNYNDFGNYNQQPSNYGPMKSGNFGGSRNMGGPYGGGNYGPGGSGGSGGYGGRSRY
UniProt P09651: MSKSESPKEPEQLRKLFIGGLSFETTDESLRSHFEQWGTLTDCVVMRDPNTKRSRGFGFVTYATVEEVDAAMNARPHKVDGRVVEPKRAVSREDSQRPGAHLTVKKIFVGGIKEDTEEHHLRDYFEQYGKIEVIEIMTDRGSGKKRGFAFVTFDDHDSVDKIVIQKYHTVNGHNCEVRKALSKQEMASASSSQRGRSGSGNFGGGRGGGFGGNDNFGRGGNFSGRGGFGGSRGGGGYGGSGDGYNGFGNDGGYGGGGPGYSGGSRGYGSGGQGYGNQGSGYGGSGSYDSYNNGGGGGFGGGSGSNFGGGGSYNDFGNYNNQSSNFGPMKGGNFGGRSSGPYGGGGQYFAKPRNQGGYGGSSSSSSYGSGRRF
UniProt Q5T440: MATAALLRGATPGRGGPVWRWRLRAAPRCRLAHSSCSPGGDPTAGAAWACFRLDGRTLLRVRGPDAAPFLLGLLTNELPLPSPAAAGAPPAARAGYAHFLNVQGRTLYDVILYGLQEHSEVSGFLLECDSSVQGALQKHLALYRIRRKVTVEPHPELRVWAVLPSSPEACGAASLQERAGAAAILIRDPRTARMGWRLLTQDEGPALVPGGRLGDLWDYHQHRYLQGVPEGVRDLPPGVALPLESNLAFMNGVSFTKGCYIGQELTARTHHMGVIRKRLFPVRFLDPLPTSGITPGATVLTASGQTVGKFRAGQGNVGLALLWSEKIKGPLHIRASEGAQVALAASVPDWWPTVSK
UniProt P17066, whole entry, looked up: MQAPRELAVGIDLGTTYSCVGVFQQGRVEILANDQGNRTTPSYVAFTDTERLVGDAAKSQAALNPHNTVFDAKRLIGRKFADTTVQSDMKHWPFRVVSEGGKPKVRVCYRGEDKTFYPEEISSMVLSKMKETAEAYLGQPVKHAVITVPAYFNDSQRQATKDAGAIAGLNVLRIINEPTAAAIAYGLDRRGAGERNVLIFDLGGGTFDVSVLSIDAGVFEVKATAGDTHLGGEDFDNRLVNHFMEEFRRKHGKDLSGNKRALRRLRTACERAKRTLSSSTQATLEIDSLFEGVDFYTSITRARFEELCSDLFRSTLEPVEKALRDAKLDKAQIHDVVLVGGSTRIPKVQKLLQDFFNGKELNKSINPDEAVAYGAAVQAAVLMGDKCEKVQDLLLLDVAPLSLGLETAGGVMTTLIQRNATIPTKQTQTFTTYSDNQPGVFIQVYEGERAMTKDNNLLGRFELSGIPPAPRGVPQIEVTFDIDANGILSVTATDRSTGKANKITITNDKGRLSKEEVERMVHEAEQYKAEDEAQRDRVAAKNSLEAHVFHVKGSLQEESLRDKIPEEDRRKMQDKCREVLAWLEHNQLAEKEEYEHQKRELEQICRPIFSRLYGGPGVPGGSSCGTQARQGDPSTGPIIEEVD
UniProt Q3SXM5: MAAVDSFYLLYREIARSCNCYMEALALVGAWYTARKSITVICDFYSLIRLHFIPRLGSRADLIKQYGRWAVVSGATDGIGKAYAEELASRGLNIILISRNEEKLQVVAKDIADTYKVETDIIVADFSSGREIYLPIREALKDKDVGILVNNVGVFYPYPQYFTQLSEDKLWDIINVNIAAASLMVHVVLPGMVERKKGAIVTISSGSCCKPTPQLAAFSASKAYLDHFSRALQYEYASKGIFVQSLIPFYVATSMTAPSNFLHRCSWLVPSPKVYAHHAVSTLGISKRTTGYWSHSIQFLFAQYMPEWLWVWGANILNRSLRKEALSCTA
UniProt O43719: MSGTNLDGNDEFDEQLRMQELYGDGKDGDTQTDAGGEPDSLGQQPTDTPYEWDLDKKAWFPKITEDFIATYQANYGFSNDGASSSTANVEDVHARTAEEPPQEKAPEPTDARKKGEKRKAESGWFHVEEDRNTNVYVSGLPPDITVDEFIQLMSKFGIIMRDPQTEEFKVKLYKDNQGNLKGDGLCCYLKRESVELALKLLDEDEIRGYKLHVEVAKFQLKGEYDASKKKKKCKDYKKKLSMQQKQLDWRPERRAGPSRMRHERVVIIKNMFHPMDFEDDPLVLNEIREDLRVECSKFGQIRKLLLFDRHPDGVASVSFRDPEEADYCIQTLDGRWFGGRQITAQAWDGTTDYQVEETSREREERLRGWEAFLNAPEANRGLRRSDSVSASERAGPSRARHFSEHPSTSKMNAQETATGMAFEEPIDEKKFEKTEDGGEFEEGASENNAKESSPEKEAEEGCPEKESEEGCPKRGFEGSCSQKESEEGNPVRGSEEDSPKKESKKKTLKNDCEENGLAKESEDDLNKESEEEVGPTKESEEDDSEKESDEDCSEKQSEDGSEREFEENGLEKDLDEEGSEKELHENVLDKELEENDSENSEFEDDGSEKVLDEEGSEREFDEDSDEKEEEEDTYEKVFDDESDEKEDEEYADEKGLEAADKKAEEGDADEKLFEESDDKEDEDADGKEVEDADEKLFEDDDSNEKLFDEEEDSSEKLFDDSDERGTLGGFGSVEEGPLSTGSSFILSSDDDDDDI
UniProt Q6NVY1: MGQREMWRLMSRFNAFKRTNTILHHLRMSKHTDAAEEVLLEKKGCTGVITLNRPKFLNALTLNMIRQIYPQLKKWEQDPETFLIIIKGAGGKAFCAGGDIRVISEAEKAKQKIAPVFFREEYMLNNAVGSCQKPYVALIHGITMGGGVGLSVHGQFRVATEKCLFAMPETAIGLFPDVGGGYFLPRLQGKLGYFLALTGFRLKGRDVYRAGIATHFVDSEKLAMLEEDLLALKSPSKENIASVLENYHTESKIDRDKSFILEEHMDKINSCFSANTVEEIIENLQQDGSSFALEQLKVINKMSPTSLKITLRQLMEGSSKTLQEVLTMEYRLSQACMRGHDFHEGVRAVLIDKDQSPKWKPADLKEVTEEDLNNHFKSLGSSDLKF

[2] = compound: C=CC(=O)N1CCC[C@@H](n2nc(-c3ccc(Oc4ccccc4)cc3)c3c(N)ncnc32)C1 [ibrutinib]
Method in brief: as §1

[3] = compound: CC(=O)c1cnc2ccc(-c3cc(Cl)c(O)c(Cl)c3)nc2c1N[C@H]1CC[C@H](CN(C)C)CC1
Method in brief: as §1

[4] = compound: CC(C)(C)Cn1c(N)nc2ccc(-c3[nH]c(C(C)(C)C)nc3-c3ccc(F)cc3)nc21 [ralimetinib]
Method in brief: as §1

[5] = compound: CC(C)(O)CC(=O)NCCn1ccc2ncnc(Nc3ccc(Oc4cccc(C(F)(F)F)c4)c(Cl)c3)c21
Method in brief: as §1

[6] = compound: CC(C)C1=C2N=C(C=C(N2N=C1)NCC3=CC=CC=C3)NCCCCCCN
Method in brief: as §1

[7] = compound: CC(C)C[C@@H](C=O)NC(=O)[C@H](CC(C)C)NC(=O)[C@H](CC(C)C)NC(=O)OCc1ccccc1
Method in brief: as §1

[8] = compound: CC(C)N(C[C@H]1O[C@@H](n2cnc3c(N)ncnc32)[C@H](O)[C@@H]1O)[C@H]1C[C@@H](CCc2nc3cc(C(C)(C)C)ccc3[nH]2)C1 [pinometostat]
Method in brief: as §1

[9] = compound: CC1=C(C(CC(=O)N1)C2=CC=C(C=C2)C(F)(F)F)C(=O)NC3=C(C=C4C(=C3)C=NN4)F
Method in brief: as §1

[10] = compound: CC1=C(C2=C(C=C1)C(=O)C3=CC=CC=C3N2CCCN)C
Method in brief: as §1

Measured: log2 fold change

HSPBP1 isoform 3 (UniProt Q9NZL4)
inactive: [1] -0.028 | [2] -0.022 | [3] 0.068 | [4] 0.026 | [5] -0.072 | [6] -0.181 | [7] -0.08 | [8] 0.02 | [9] 0.013 | [10] -0.07

HIRIP3 (UniProt Q9BW71)
inactive: [1] 0.015 | [2] -0.019 | [3] -0.046 | [4] -0.056 | [5] 0.004 | [6] -0.009 | [7] 0.023 | [8] -0.062 | [9] 0.03 | [10] -0.003

HIST2H2AA3 (UniProt Q6FI13)
inactive: [1] -0.099 | [2] 0.175 | [3] 0.186 | [4] 0.195 | [5] 0.061 | [6] 0.088 | [7] 0.229 | [8] 0.42 | [9] -0.114 | [10] 0.956

HSPD1 (UniProt P10809)
inactive: [1] 0.052 | [2] -0.006 | [3] 0.017 | [4] -0.038 | [5] 0.041 | [6] 0.021 | [7] -0.011 | [8] -0.032 | [9] 0.005 | [10] -0.011

HSPE1 (UniProt P61604)
inactive: [1] 0.035 | [2] -0.019 | [3] -0.01 | [4] -0.05 | [5] 0.033 | [6] 0.077 | [7] 0.014 | [8] -0.054 | [9] 0.024 | [10] 0.076

HSPH1 (UniProt Q92598)
inactive: [1] -0.008 | [2] 0.002 | [3] 0.029 | [4] 0.014 | [5] -0.02 | [6] -0.043 | [7] -0.065 | [8] -0.018 | [9] 0.049 | [10] 0.003

HSPA13 (UniProt P48723)
inactive: [1] -0.01 | [2] 0.012 | [3] -0.023 | [4] 0.023 | [5] 0.003 | [6] 0.037 | [7] 0.021 | [8] 0.004 | [9] 0.026 | [10] -0.086

HINT3 (UniProt Q9NQE9)
inactive: [1] 0.071 | [2] 0.002 | [3] -0.023 | [4] -0.102 | [5] 0.013 | [6] 0.017 | [7] 0.021 | [8] -0.003 | [9] -0.03 | [10] 0.005

HIST2H2BC (UniProt Q6DN03)
inactive: [1] -0.033 | [2] 0.19 | [3] -0.04 | [4] 0.166 | [5] 0.006 | [6] -0.093 | [7] 0.17 | [8] 0.373 | [9] -0.07 | [10] 0.671

HKDC1 (UniProt Q2TB90)
inactive: [1] -0.022 | [2] -0.002 | [3] -0.125 | [4] -0.152 | [5] 0.036 | [6] 0.027 | [7] -0.148 | [8] -0.027 | [9] 0.038 | [10] 0.013

HSPB1 (UniProt P04792)
inactive: [1] -0.05 | [2] -0.02 | [3] 0.114 | [4] 0.089 | [5] 0.044 | [6] -0.04 | [7] 0.035 | [8] 0.063 | [9] -0.058 | [10] 0.031

HMGN3 (UniProt Q15651)
inactive: [1] -0.116 | [2] 0.083 | [3] -0.017 | [4] -0.08 | [5] 0.074 | [6] 0.145 | [7] 0.08 | [8] 0.02 | [9] 0.482 | [10] 0.263

HSPA4L (UniProt O95757)
inactive: [1] 0.05 | [2] -0.01 | [3] 0.02 | [4] -0.009 | [5] -0.037 | [6] 0.014 | [7] 0.003 | [8] -0.003 | [9] -0.012 | [10] 0.015

Copied from above (2 entries):
HSPH1 (UniProt Q92598)
inactive: [1] -0.008 | [2] 0.002 | [3] 0.029 | [4] 0.014 | [5] -0.02 | [6] -0.043 | [7] -0.065 | [8] -0.018 | [9] 0.049 | [10] 0.003

HSPA13 (UniProt P48723)
inactive: [1] -0.01 | [2] 0.012 | [3] -0.023 | [4] 0.023 | [5] 0.003 | [6] 0.037 | [7] 0.021 | [8] 0.004 | [9] 0.026 | [10] -0.086

The listing continues:

HK1 isoform 2 (UniProt P19367)
inactive: [1] -0.008 | [2] -0.007 | [3] -0.006 | [4] -0.066 | [5] -0.034 | [6] 0.026 | [7] -0.033 | [8] -0.054 | [9] 0.02 | [10] 0.03

HTRA2 (UniProt O43464)
inactive: [1] -0.004 | [2] 0.019 | [3] 0.034 | [4] -0.025 | [5] -0.034 | [6] 0.041 | [7] 0.037 | [8] -0.039 | [9] 0.041 | [10] -0.002

HIF1AN (UniProt Q9NWT6)
inactive: [1] 0.019 | [2] 0.067 | [3] 0.102 | [4] 0.189 | [5] 0.109 | [6] 0.072 | [7] -0.055 | [8] 0.015 | [9] -0.035 | [10] -0.168

HSP90B1 (UniProt P14625)
inactive: [1] 0.033 | [2] -0.01 | [3] -0.023 | [4] -0.037 | [5] -0.013 | [6] 0.005 | [7] -0.009 | [8] -0.022 | [9] 0.019 | [10] -0.032

HNRNPA2B1 (UniProt P22626)
inactive: [1] -0.15 | [2] 0.082 | [3] 0.204 | [4] 0.171 | [5] 0.217 | [6] 0.164 | [7] 0.176 | [8] 0.19 | [9] 0.025 | [10] -0.031

HMGA1 (UniProt P17096)
inactive: [1] -0.131 | [2] 0.012 | [3] -0.074 | [4] 0.149 | [5] 0.228 | [6] 0.062 | [7] 0.195 | [8] 0.074 | [9] 0.029 | [10] 0.089

HNRNPA1 (UniProt P09651)
inactive: [1] -0.141 | [2] 0.096 | [3] 0.148 | [4] 0.158 | [5] 0.139 | [6] 0.109 | [7] 0.117 | [8] 0.252 | [9] -0.02 | [10] -0.073

HS2ST1 (UniProt Q7LGA3)
inactive: [1] -0.008 | [2] 0.022 | [3] 0.059 | [4] 0.001 | [5] 0.052 | [6] -0.034 | [7] 0.025 | [8] 0.068 | [9] 0.002 | [10] 0.118

HNRNPD isoform 4 (UniProt Q14103)
inactive: [1] -0.138 | [2] -0.022 | [3] 0.121 | [4] 0.207 | [5] 0.127 | [6] 0.045 | [7] -0.19 | [8] 0.08 | [9] 0.03 | [10] -0.117

IBA57 (UniProt Q5T440)
inactive: [1] 0.084 | [2] -0.035 | [3] -0.031 | [4] -0.047 | [5] -0.004 | [6] -0.027 | [7] 0.084 | [8] 0.02 | [9] -0.011 | [10] 0.004

HSPA6 (UniProt P17066)
inactive: [1] 0.005 | [2] 0.035 | [3] 0.033 | [4] 0 | [5] 0.034 | [6] 0.036 | [7] -0.056 | [8] -0.046 | [9] 0.04 | [10] -0.014

IARS (UniProt P41252)
inactive: [1] -0.126 | [2] -0.02 | [3] 0.126 | [4] 0.236 | [5] 0.047 | [6] -0.267 | [7] 0.16 | [8] 0.504 | [9] 0.004 | [10] -0.012

HSPA5 (UniProt P11021)
inactive: [1] 0.026 | [2] -0.028 | [3] 0 | [4] -0.04 | [5] 0.038 | [6] 0.018 | [7] -0.015 | [8] -0.041 | [9] 0.022 | [10] -0.019

HSDL1 (UniProt Q3SXM5)
inactive: [1] -0.004 | [2] 0.025 | [3] -0.003 | [4] -0.063 | [5] 0.035 | [6] 0.035 | [7] -0.041 | [8] -0.033 | [9] -0.031 | [10] 0.035

HTATSF1 (UniProt O43719)
inactive: [1] -0.089 | [2] -0.088 | [3] -0.042 | [4] -0.035 | [5] -0.068 | [6] -0.298 | [7] 0.04 | [8] -0.005 | [9] 0.025 | [10] -0.19

HNRNPD (UniProt Q14103)
inactive: [1] -0.083 | [2] 0.03 | [3] 0.169 | [4] 0.085 | [5] 0.152 | [6] 0.013 | [7] 0.082 | [8] 0.054 | [9] 0 | [10] -0.029

HIBCH (UniProt Q6NVY1)
inactive: [1] 0.022 | [2] -0.002 | [3] -0.016 | [4] -0.01 | [5] -0.099 | [6] -0.128 | [7] -0.008 | [8] -0.029 | [9] -0.01 | [10] 0.035
